Experimental data reported in paper PMC7427095 (2020).
These are yes or no findings as the source states them, for the method shown. For part of these data: In cells and extracts the contact can be indirect. Some binding calls cover weakened binding; strength is not graded here. For part of these data: Where a sequence is shown, tags or fusion partners need not be part of it.

Legend:
His6-YFP-SH2 (human) = assay: pull-down; His6-YFP-SH2 held on Co2+ agarose (Talon) and washed; clarified E. coli lysates of the chimeras with FMN; 45 min at 4 °C under blue light (450 nm) or in the dark; Binding buffer (Tris 100 mM pH 8.0, NaCl 150 mM, glycerol 1%, 5 mM imidazole); imidazole elution, SDS-PAGE; only the target purified
His6-HA4 (monobody HA4) [1] = assay: fluorescence microscopy of coated agarose beads; His-tagged monobody on Ni-NTA agarose beads, 2 µM YFP-SH2 in Buffer A, equilibrated in the dark, imaged at room temperature from darkness into blue light (450 nm), images every 2 min for 8 min; both purified
His6-HA4 (monobody HA4) [2] = assay: SEC; Superdex 200 16/300, Buffer A, 4 °C, 1 mL/min; about 1.2:1 binder to target; incubated and run in the dark or under blue light (450 nm); both purified

B1: HA4-AsLOV2 (SS30 insertion) (designed binder)
chain: GSSVSSVPTKLEVVAATPTSLLISWDAPMSGLERIEKNFVITDPRLPDNPIIFASDSFLQLTEYSREEILGRNCRFLQGPETDRATVRKIRDAIDNQTEVTVQLINYTKSGKKFWNLFHLQPMRDQKGDVQYFIGVQLDGTEHVRDAAEREGVMLIKKTAENIDEAAGSSSVYYYRITYGETGGNSPVQEFTVPYSSSTATISGLSPGVDYTITVYAWGEDSAGYMFMYSPISINYRTC
binding (His6-YFP-SH2 (human)): binds

B2: YFP-SH2 (fusion of yellow fluorescent protein and the SH2 domain of human Abl kinase), purified (domain or fragment)
chain: SLEKHSWYHGPVSRNAAEYLLSSGINGSFLVRESESSPGQRSISLRYEGRVYHYRINTASDGKLYVSSESRFNTLAELVHHHSTVADGLITTLHYPAPKRNKPTVYGVSPNY
binding (His6-HA4 (monobody HA4) [1]): binds
binding (His6-HA4 (monobody HA4) [2]): binds
